This is an account of results in article PMC5365316.

Sequences of proteins named here, by UniProt entry; tags and fusion partners are left off. A change or cut given only in a name is not applied to a line headed by its entry. Residues count along the entry.
UniProt Q8IC42: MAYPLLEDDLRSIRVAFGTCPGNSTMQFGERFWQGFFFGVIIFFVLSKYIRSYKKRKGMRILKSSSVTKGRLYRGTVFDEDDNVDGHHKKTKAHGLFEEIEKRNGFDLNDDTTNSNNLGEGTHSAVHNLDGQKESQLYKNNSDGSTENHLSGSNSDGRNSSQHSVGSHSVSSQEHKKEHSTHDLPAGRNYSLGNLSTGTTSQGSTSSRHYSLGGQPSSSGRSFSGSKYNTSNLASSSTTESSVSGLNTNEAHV
UniProt O77310, residues 25-1417: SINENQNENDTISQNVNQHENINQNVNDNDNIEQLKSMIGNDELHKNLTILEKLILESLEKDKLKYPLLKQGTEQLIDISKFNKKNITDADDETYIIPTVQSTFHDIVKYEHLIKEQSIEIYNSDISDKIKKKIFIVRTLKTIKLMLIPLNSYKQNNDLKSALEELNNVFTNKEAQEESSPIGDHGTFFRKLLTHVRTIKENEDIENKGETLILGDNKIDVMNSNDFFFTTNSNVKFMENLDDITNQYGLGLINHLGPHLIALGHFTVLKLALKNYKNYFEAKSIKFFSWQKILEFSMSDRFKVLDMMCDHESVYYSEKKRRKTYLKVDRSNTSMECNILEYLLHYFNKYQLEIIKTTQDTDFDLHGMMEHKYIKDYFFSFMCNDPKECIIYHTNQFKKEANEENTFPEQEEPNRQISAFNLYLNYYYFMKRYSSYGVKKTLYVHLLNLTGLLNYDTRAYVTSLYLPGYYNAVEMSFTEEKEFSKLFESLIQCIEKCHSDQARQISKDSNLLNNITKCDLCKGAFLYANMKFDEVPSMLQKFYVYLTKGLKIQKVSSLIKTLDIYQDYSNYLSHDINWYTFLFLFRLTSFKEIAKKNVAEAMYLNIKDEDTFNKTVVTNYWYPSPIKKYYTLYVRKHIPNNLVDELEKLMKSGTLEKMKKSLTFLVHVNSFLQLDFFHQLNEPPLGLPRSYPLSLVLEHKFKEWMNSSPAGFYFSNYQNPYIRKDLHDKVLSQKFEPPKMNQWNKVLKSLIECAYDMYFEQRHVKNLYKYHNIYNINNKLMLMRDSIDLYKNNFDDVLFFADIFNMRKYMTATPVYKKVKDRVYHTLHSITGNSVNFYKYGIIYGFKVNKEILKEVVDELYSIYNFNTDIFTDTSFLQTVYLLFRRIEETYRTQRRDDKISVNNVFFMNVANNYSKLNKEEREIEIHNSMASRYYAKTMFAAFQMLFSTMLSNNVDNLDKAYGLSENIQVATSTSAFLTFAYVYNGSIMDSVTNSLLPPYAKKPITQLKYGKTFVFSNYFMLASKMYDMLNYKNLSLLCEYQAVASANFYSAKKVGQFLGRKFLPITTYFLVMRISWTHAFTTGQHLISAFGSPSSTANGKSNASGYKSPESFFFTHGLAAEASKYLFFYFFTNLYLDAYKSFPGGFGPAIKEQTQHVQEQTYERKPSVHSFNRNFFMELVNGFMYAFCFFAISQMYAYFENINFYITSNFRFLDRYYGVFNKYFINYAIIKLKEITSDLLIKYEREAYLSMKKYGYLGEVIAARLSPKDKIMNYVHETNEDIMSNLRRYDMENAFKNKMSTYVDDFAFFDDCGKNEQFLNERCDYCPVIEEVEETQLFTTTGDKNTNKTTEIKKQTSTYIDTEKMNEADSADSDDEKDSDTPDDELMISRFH
UniProt P02730: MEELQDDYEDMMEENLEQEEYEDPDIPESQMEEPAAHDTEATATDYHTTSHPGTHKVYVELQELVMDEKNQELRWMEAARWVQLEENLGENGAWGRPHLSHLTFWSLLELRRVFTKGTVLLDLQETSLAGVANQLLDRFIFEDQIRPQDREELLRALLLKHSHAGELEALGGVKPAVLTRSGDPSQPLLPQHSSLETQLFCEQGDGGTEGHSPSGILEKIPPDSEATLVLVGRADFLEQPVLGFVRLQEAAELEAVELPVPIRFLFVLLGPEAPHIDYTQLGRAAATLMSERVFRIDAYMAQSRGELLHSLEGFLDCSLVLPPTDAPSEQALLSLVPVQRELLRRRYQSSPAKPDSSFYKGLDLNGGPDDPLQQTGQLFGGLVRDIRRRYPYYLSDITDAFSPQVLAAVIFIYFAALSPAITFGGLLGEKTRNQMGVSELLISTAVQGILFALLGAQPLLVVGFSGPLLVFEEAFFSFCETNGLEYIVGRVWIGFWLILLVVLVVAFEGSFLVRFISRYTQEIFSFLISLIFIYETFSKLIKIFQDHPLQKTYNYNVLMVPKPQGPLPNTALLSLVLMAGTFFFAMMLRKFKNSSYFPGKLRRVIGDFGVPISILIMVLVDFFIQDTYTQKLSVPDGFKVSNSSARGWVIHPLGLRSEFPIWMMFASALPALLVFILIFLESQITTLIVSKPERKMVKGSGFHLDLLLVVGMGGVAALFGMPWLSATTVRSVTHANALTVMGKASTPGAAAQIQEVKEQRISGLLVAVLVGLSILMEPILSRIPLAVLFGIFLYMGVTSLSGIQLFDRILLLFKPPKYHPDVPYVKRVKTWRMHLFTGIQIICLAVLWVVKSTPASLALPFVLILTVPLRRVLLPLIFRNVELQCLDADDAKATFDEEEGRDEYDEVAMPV
UniProt P13830: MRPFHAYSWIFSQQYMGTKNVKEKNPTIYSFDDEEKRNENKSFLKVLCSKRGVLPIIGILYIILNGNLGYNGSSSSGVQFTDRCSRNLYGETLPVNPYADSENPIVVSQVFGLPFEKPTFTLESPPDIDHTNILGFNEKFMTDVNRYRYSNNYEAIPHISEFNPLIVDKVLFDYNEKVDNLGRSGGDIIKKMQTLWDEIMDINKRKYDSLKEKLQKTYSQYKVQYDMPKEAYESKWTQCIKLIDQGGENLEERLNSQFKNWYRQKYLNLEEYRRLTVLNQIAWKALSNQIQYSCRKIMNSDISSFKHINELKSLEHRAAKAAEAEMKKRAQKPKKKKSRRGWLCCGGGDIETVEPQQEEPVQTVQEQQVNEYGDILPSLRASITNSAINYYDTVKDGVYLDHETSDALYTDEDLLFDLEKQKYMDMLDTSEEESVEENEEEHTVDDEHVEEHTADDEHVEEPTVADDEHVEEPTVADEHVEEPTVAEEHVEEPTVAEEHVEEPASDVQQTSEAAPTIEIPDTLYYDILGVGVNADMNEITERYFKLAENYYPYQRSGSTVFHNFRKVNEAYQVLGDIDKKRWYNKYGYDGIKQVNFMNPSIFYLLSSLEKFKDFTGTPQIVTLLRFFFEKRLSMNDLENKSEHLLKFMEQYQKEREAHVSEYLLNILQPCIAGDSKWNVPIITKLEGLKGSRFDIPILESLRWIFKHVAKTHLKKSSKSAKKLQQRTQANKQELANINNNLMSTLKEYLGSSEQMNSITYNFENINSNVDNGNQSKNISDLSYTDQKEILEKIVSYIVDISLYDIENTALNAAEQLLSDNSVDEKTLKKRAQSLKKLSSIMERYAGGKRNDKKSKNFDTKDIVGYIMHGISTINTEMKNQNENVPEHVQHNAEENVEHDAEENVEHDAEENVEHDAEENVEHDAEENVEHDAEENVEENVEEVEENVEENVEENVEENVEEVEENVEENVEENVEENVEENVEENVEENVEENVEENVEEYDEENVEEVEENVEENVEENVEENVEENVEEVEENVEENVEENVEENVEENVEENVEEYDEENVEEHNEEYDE

No constants are given. Whether binding was seen depends on the method and setting. In cells and extracts the contact can be indirect. A yes stands for co-enrichment or nearness to the bait. Other partners may have been found. Sequences can lack the tags named with a protein.

T1: RhopH2-HA (P. falciparum RhopH2 with a triple hemagglutinin and single strep II tag at the C-terminus) (P. falciparum) (UniProt C0H571)
T1 sequence: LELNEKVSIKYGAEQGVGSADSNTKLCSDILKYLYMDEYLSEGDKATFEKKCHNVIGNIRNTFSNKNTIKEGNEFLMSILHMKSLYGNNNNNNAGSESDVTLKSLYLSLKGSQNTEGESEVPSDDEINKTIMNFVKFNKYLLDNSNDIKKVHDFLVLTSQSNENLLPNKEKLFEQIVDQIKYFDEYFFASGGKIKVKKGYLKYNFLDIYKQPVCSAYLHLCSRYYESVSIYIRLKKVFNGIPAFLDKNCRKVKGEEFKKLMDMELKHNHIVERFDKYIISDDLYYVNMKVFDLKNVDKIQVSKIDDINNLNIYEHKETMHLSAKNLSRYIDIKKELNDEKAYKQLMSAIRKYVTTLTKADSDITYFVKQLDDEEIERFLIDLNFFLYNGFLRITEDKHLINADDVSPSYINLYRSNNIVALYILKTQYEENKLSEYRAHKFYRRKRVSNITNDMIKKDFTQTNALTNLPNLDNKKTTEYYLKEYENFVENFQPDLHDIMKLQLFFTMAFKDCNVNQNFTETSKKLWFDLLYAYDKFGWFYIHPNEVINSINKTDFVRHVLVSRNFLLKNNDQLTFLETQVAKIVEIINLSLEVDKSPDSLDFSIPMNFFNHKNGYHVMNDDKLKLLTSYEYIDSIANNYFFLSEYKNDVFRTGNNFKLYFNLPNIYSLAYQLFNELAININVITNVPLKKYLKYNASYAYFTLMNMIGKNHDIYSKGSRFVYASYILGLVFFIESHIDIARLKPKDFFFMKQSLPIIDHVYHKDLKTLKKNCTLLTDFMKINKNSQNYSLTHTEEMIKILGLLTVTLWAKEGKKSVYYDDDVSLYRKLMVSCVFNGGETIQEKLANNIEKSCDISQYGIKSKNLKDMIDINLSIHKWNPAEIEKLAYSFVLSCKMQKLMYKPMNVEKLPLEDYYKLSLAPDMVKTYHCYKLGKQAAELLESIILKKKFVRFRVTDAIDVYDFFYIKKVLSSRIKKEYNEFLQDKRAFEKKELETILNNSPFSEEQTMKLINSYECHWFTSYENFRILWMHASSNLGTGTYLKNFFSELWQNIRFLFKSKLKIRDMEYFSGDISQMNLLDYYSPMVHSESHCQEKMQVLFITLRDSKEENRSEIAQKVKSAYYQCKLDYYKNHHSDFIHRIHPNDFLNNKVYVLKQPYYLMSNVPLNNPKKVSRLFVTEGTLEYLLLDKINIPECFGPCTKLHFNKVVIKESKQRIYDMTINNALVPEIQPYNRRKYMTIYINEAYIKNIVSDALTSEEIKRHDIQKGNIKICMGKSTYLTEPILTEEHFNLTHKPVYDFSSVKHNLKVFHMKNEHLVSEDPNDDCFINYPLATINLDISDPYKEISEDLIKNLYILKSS

B1: RhopH3 (protein, UniProt Q8I395 25-897)
chain: KDVFAGFVTKKLKTLLDCNFALYYNFKGNGPDAGSFLDFVDEPEQFYWFVEHFLSVKFRVPKHLKDKNIHNFTPCLNRSWVSEFLKEYEEPFVNPVMKFLDKEQRLFFTYNFGDVEPQGKYTYFPVKEFHKYCILPPLIKTNIKDGESGEFLKYQLNKEEYKVFLSSVGSQMTAIKNLYSTVEDEQRKQLLKVIIENESTNDISVQCPTYNIKLHYTKECANSNNILKCIDEFLRKTCEKKTESKHPSADLCEHLQFLFESLKNPYLDNFKKFMTNSDFTLIKPQSVWNVPIFDIYKPKNYLDSVQNLDTECFKKLNSKNLIFLSFHDDIPNNPYYNVELQEIVKLSTYTYSIFDKLYNFFFVFKKSGAPISPVSVKELSHNITDFSFKEDNSEIQCQNVRKSLDLEVDVETMKGIAAEKLCKIIEKFILTKDDASKPEKSDIHRGFRILCILISTHVEAYNIVRQLLNMESMISLTRYTSLYIHKFFKSVTLLKGNFLYKNNKAIRYSRACSKASLHVPSVLYRRNIYIPETFLSLYLGLSNLVSSNPSSPFFEYAIIEFLVTYYNKGSEKFVLYFISIISVLYINEYYYEQLSCFYPKEFELIKSRMIHPNIVDRILKGIDNLMKSTRYDKMRTMYLDFESSDIFSREKVFTALYNFDSFIKTNEQLKKKNLEEISEIPVQLETSNDGIGYRKQDVLYETDKPQTMDEASYEETVDEDAHHVNEKQHSAHFLDAIAEKDILEEKTKDQDLEIELYKYMGPLKEQSKSTSAASTSDEISGSEGPSTESTSTGNQGEDKTTDNTYKEMEELEEAEGTSNLKKGLEFYKSSLKLDQLDKEKPKKKKSKRKKKRDSSSDRILLEESKTFTSENEL

The target of this experiment is T1, RhopH2-HA (P. falciparum RhopH2 with a triple hemagglutinin and single strep II tag at the C-terminus) (P. falciparum). Nature of the experiment: affinity purification with mass spectrometry.
As to HSP70-x, the binding result is “binds”.
On to PHIST protein PF3D7_0532300, for which the binding result is listed as “binds”.
As for “PHIST protein PF3D7_0702500 (from UniProt Q8IC42)”, the binding result is “binds”.
Next, “RhopH1/Clag3.1 (from UniProt O77310 25-1417)”: “binds”.
As to RhopH1/Clag9, the binding result was “binds”.
With “ankyrin (human (endogenous in erythrocytes))”, the binding result is on record as “binds”.
Consider band 3 (from UniProt P02730 1-911), for which the binding result is listed as “binds”.
Next, “glycophorin-binding protein 130 (GBP130)”: “binds”; protein 4.1 (from UniProt P11171-4): “binds”.
Take “ring erythrocyte surface antigen (RESA) (from UniProt P13830)”: the binding entry is given as “binds”.
To “small exported membrane protein 1 (SEMP1)” belongs “binds”; to “spectrin (human (endogenous in erythrocytes)) (complex)”, “binds”; to “tubulin (human (endogenous in erythrocytes))”, “binds”.
As to B1, the binding result was “binds”.
